Results as given in PubChem BioAssay AID1347426 (Functional Genomics Laboratory (NCATS/FGL), 2020).
Hit rate of the full screen: of about 31,000 sequences, about 1,400 (4.5%) were called active.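 The calls were made as follows: active = median seed-adjusted z-score above 1 or below -1; inactive = the rest.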 The list shows a part of the results.

Experiment: Novel Modifiers of Survival Motor Neuron (SMN) Protein: Gene Identification via Genome-wide siRNA Screen
Conditions: HEK293T SMN2-luciferase reporter, siRNA knockdown, 72 h; actives lie on both sides
From the text: Spinal muscular atrophy (SMA) is the most common neuromuscular autosomal recessive disorder and one of the leading genetic causes of infant death. SMA results from mutations inducing loss of function or deletion in the survival of motor neuron-1 gene (SMN1), leading to deficiency of the survival motor neuron (SMN) protein. Although a second nearly identical gene, SMN2, is retained in humans, its expression primarily produces an aberrantly spliced isoform that is largely unstable and quickly degraded. We performed a genome-wide RNAi screen using a cell-based reporter assay to identify genes and pathways that modulate SMN protein stability. The screen identified over 200 genes that led to the greatest increase or decrease in luciferase expression.
Using HEK293T cells stably expressing a luciferase reporter that combines the promoter and splicing based cassettes in tandem with the major portion of the native SMN2 cDNA with luciferase, we performed a genome-wide RNAi screen to identify modulators of SMN protein levels. Luciferase is expressed when full-length SMN protein is generated with luminescence signal proportional to SMN protein levels. Our luciferase-based reporter assay was used to screen Ambion Silencer Select Human Druggable Genome siRNA library (10418 genes, 3 unique siRNAs per gene) using lipid-based reverse transfection.
Briefly, 1 pmol of each siRNA was spotted to a well of a 384-well plate (Corning, Corning, NY) and 20 microL of serum-free DMEM containing […] of Lipofectamine RNAiMax (Life Technologies, Carlsbad, CA) was then added to each well. Transfected cells were maintained at 37 degrees C in 5% CO2 for 72 hours, 20 microL of ONE-Glo Reagent (Promega) was added to wells for luciferase quantification. Raw luminescence reads were normalized to Ambion(R) Silencer(R) Negative Control #2 siRNA, then log10 transformed. A robust statistical measure of median absolute deviation (MAD) to standardize siRNA activities from each screen. Common Seed Analysis was used to help prioritize clean hits as opposed to those appearing to arise from seed based off-target effects. Candidate modulators were defined as the genes having a MAD score greater than 1.0 or less than -1.0.

Sequence	median seed-adjusted z-score
CAAAGGAAUUUUGAAGUCATT against LY9	inactive: 0.228
GAACGAAUUUGUAUCUCUUTT against STAU1	inactive: -0.143
CGAAGGAGAUGGUUGGUCATT against RARRES3	inactive: -0.033
GCGCUUCUGGUGUACGACATT against RAB17	inactive: 0.473
GCCCGGACUGAAAAACUUATT against OBFC2A	inactive: 0.406
CCAACUACCCUAACAUCUUTT against CNGA2	inactive: -0.0447
GGUCAAUAGCAACUUAGUATT against EPHA6	inactive: 0.0445
CAACAGAUGCGGAAUCGGATT against NAP1L4	inactive: -0.244
CACUAUUCGUUAUGAUUUUTT against EAF1	inactive: -0.931
AACUGGGAAUUGAGAGGUATT against SOX12	inactive: 0.478
AAGUUUACGUGAACAAAUUTT against POU3F2	inactive: -0.179
GGAUGUUCUAUGACGGGAATT against ADAM22	inactive: 0.292
CCGUGGUAACUAUCGUAUATT against TRIM32	inactive: 0.109
GAAAAACGGUGACCGUCAATT against MYO9B	inactive: -0.0287
CGACUGUCUUUAAUCUCUATT against HADHB	inactive: -0.188
CAGAAAGGAUUGAAUGUGATT against TBXA2R	inactive: 0
CAGAUGAGGCUAAUACUUATT against ITLN1	inactive: 0.23
GGAAGCUUCUGUCAUGAAATT against INSRR	inactive: 0.13
CGGUGUCCAUGAACAGAGATT against ERAL1	inactive: -0.46
CUACCUUACUAGCCCAUAUTT against EPS15	inactive: -0.478
GUGUCUGGAUGAUCUUUGUTT against OPN1MW	inactive: -0.369
GGAUUACAGUGUCCAAAGATT against ADRA1A	active: -1.06
GACAAACCUUUUGAGCUAATT against PCDHB15	inactive: 0.0154
GCCUGAUGCUUUUUGGACATT against USP11	inactive: -0.0327
GAAUCUCACAAUUAUGUAUTT against NCK2	inactive: -0.397
GCUCCACGGUUGUUGACUATT against ULK4	inactive: 0.0834
CUGCAGCGAUGGUUACAUUTT against PPAP2A	inactive: 0

Sequence	median seed-adjusted z-score
CGGAGUAUACAAACCUUUATT against ATP6V0D2	inactive: -0.0346
GAUUCUCCUAGGUACCCUATT against PROX2	inactive: -0.825
GCCCUAAACAGGAAGGUCATT against TEK	inactive: -0.347
UACCCAGCAUGGAUGCUCATT against ZNF688	inactive: -0.475
ACUGUGAAAUUGGACCAAUTT against RABIF	inactive: 0
CCCAAUCAGUGGACACUAUTT against MCM6	inactive: 0.266
GGGUUGUUUCAAUCUAACATT against HDAC2	active: -1.27
GAUUAUCGAAUGUCUGAAATT against GLG1	inactive: 0.308
CACUCUUGUUGUCAAGAAATT against HNRNPCL1	inactive: 0
GAGUUCCGCCUGAUGAUGATT against DND1	inactive: 0.157
CCCGGGAGAUUUUCAGUAATT against RGS12	inactive: 0.404
CAAGAAUCUUAAGAUAGAATT against CD4	inactive: -0.566
CCUUCAAGAUCAUUCGUGATT against VPS72	inactive: 0.572
GAGUGUGGAUCGCUAUGUATT against OPRL1	inactive: -0.9
CAACUAUGCCGACACGCUUTT against PCDHGA6	inactive: 0.0559
CGAUAUGGAUUCCAAUACATT against AK5	inactive: -0.0461
GAACUUAUCUAACUCCAAATT against ADORA3	inactive: 0
CAACCUUCGUAGUGACAAUTT against SCMH1	inactive: -0.305
UGAUACUCCUGGAAUACAATT against CNTF	inactive: 0.3
GGAAUACCCUAGAUCAGGATT against ZKSCAN2	inactive: -0.0343
GGAACUGAAAUAAGUAUUATT against GPR113	inactive: -0.434
GCAACUUGAGGGAUAACUATT against PDIA3	inactive: -0.619
GAGACGUGGUGGAACAAGATT against GRID2	inactive: 0.676
GCACAAGUACAACAAACUUTT against BLMH	inactive: -0.156
CUUCAACUCCAGUUAGUCUTT against SP3	inactive: -0.0943
CAAGUACGAUGAGUAUGAATT against XK	inactive: 0.403
CGAGAGAGCUAGCUCUACATT against DDX31	inactive: 0.0144

Taken from the results shown for reference:
Sequence	median seed-adjusted z-score
UACCCAGCAUGGAUGCUCATT against ZNF688	inactive: -0.475
ACUGUGAAAUUGGACCAAUTT against RABIF	inactive: 0
CCCAAUCAGUGGACACUAUTT against MCM6	inactive: 0.266
GGGUUGUUUCAAUCUAACATT against HDAC2	active: -1.27
